Here are results for ten sequences from patent US20100267802.

The chains behind the UniProt entries cited, without tags or fusion partners. Where a name states a change or a piece, a line headed by the entry shows the natural chain unless it says otherwise. Residues count along the entry.
UniProt P10721, 26-976: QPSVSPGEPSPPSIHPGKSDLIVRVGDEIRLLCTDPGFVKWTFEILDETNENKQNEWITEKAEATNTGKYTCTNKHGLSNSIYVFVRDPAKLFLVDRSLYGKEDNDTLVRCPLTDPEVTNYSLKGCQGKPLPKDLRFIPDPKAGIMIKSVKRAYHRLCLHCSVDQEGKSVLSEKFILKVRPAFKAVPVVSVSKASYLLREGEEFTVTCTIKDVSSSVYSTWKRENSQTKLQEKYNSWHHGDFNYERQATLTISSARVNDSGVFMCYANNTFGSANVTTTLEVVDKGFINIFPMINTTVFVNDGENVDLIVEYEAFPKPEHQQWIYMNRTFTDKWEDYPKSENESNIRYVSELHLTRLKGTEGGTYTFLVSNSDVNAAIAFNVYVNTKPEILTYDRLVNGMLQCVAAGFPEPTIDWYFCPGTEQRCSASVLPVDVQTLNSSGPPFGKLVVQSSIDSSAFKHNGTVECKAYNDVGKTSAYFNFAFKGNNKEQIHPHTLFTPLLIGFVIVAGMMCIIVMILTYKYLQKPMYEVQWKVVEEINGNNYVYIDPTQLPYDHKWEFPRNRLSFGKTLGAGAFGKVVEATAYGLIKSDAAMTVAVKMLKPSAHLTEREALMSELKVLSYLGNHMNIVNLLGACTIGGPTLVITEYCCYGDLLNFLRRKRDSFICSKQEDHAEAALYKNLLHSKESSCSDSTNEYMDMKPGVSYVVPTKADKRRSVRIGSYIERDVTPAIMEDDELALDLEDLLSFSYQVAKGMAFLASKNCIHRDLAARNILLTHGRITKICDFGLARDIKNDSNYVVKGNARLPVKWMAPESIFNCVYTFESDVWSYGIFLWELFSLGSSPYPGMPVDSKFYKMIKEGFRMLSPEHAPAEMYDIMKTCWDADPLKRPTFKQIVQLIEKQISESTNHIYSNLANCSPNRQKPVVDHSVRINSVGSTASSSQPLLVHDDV
UniProt Q04609: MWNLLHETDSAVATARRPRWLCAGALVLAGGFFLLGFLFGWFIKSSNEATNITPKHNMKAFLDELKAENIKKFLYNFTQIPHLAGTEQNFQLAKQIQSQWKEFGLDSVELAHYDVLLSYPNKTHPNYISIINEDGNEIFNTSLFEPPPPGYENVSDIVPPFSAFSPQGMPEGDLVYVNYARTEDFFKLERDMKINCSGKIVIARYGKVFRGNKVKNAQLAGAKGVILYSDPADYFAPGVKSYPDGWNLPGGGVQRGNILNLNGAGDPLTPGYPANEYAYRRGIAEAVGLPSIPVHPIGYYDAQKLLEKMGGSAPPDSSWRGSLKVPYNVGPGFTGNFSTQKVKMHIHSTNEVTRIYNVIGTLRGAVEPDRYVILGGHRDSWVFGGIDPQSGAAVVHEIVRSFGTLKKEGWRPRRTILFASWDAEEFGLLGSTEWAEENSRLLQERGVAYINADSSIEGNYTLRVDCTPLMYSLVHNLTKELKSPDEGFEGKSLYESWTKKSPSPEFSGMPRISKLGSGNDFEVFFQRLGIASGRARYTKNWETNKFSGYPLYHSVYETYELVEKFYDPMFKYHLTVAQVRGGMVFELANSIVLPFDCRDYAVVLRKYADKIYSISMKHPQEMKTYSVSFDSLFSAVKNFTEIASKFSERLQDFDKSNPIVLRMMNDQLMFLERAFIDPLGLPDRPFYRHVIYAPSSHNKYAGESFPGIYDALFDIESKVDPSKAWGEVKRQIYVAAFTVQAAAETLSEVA
UniProt Q9UPY3: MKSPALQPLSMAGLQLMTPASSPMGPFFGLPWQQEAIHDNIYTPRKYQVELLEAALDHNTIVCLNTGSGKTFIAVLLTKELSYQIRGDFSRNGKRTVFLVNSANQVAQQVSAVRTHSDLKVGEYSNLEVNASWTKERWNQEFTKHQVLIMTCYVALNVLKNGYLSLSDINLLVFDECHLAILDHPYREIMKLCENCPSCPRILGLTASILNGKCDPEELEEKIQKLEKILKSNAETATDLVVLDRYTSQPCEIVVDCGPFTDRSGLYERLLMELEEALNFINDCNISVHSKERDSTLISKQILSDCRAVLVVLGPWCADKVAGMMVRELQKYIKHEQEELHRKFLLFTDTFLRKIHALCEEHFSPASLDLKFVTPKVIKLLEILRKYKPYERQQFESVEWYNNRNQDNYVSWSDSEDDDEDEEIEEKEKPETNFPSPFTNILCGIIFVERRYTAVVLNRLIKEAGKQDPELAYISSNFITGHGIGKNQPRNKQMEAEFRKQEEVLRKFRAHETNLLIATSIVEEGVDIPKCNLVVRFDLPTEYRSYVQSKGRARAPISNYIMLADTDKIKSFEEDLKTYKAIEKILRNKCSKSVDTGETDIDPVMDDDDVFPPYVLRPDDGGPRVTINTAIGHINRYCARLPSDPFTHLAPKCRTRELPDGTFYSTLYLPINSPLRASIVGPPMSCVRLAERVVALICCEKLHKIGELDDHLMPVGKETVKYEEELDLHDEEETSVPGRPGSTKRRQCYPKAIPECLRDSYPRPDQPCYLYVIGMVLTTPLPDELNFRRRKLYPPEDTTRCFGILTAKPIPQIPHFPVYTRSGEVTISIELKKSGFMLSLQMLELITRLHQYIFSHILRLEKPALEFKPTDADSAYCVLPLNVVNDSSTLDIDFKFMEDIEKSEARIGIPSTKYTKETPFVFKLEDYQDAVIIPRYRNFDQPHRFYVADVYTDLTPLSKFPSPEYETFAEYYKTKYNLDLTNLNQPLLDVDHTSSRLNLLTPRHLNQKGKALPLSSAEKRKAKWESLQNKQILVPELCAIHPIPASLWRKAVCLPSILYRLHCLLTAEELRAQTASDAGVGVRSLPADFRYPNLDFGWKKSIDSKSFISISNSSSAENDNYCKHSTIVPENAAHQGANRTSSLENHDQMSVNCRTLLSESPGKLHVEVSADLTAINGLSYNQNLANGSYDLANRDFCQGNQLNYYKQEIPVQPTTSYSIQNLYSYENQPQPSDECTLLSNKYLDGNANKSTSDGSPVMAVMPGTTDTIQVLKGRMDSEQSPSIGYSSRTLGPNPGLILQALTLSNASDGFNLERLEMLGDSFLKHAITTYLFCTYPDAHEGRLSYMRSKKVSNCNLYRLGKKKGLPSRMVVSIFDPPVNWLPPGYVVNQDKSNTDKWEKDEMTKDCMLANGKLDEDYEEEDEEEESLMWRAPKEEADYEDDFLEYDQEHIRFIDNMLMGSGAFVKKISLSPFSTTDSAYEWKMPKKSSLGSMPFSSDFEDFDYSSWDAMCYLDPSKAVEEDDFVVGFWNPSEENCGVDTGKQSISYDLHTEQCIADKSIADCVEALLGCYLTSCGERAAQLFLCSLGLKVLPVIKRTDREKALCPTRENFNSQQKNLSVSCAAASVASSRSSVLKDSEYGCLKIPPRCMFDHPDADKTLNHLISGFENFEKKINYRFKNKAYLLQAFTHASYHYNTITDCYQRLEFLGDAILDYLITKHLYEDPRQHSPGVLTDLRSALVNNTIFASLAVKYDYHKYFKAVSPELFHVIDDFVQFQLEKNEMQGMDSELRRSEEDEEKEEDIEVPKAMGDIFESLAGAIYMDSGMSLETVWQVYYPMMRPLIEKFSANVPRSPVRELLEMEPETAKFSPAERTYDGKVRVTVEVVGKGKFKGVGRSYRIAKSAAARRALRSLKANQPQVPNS
UniProt P19338, 2-710: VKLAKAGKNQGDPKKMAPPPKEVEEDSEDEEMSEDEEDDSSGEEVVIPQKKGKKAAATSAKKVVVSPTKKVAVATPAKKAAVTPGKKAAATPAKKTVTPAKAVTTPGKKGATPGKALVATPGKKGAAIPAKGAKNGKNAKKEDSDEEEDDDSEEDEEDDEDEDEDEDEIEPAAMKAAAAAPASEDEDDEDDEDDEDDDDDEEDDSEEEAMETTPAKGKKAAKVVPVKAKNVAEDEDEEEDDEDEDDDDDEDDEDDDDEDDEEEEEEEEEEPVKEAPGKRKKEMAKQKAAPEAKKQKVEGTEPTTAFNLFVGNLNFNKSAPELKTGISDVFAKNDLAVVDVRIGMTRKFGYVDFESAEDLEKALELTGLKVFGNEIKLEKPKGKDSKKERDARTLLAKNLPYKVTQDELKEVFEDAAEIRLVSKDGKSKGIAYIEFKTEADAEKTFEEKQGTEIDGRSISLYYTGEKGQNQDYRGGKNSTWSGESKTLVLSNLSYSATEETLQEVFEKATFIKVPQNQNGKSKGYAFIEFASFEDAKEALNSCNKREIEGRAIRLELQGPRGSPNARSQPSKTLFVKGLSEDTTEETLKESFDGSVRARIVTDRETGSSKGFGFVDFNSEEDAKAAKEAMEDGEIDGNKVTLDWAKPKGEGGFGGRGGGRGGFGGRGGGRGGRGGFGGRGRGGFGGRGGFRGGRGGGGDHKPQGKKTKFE

In data set [1] the target is c-Kit (stem cell factor receptor) (Homo sapiens) (UniProt P10721). Kind of data set: activity in cells. The following applies: dTdT 3' end on antisense; Plk1 knockdown in DLD-1; none in c-Kit-lacking K562; protein on the cell surface; protein details: endogenous on DLD-1 cells; dose not given here.
Data set [2] deals with PSMA (prostate-specific membrane antigen) (Homo sapiens) (UniProt Q04609). Put plainly: flow cytometry. The following applies: protein on the cell surface, protein details: endogenous on LNCaP cells. Background: In flow cytometry, cells or beads pass a laser one at a time.
Another data set deals with Dicer (UniProt Q9UPY3). Put plainly: enzyme reaction in vitro. The following applies: purified recombinant protein, protein details: recombinant dicer enzyme kit.
Data set [3] deals with Nucleolin (Homo sapiens) (UniProt P19338). Kind of data set: flow cytometry. Particulars: HeLa cells, 1 uM overnight, DMEM 10% FBS; internalized signal after Mg-free wash; protein on the cell surface; protein details: endogenous on HeLa cells; label: Alexa 488; folded or branched DNA.
Data set [4] has the same target. Kind of data set: binding assay. The following applies: fluorescence microscopy, HeLa uptake to nuclei, 400 nM, 37 C, 1 h; protein on the cell surface; protein details: endogenous on HeLa cells; label: FITC; variant of AS1411 aptamer.
Where [5] appears, read: 2'-F pyrimidines in aptamer sense strand, dTdT 3' end on antisense, digested to 21-23 nt fragments retaining antisense strand, label: FAM-G, variant of A10 aptamer.

For some of these results: A negative result means that nothing was seen under these conditions. For some of these results: Where cells or extracts were used, other partners may take part.

Turning to “GGGAGAGAGGAAGAGGGATGGGCTCTACGTCGATCGAATTTCGGATGCATCCCAAATACCAGCATAACCCAGAGGTCGATAGTACTGGATCCCAAGGGCGGCUUUGCCAAGUGC / GCACUUGGCAAAGCCGCCCTT [9.38-Plk1 chimera]”, in data set [1], the “functional effect of the aptamer” value is given as “active”.

Turning to “GGGAGGACGAUGCGGAUCAGCCAUCCUUACGUCACUCCUUGUCAAUCCUCAUCGGCAGACGACUCGCCCGAAAGGGCGGCUUUGCCAAGUGC / GCACUUGGCAAAGCCGCCCTT [mutA10-Plk1 chimera]”, the binding result in data set [2] (2'-F pyrimidines in aptamer sense strand, dTdT 3' end on antisense, no binding to LNCaP with or without DHT, up to 10 uM, label: FAM-G, variant of A10-Plk1 chimera) is recorded as “no binding”.

On to “GGGAGGACGAUGCGGAUCAGCCAUGUUUACGUCACUCCUUGUCAAUCCUCAUCGGCAGACGACUCGCCCGA [A10 aptamer]”, for which the binding result in data set [2] (2'-F pyrimidines, LNCaP binding, none on PSMA-negative PC-3, competed by unlabeled A10 and anti-PSMA antibody, 2 mM CaCl2, 37 C, label: FAM-G) is “binds”. Also, the “activity on this sequence” value with Dicer (2'-F pyrimidines, not digested, label: FAM-G) is “not active”.

Take “GGGAGGACGAUGCGGAUCAGCCAUGUUUACGUCACUCCUUGUCAAUCCUCAUCGGCAGACGACUCGCCCGAAAGGGCGGCUUUGCCAAGUGC / GCACUUGGCAAAGCCGCCCTT [A10-Plk1 chimera]”: the binding result in data set [2] (2'-F pyrimidines in aptamer sense strand, dTdT 3' end on antisense, affinity comparable to A10, none on PC-3, competed by unlabeled A10 and anti-PSMA antibody, uptake reduced by DHT, label: FAM-G, variant of A10 aptamer) is given as “binds”. Besides, the “activity on this sequence” value with Dicer (setting [5]) is reported as “active”.

For the sequence “GGGAGGACGAUGCGGAUCAGCCAUGUUUACGUCACUCCUUGUCAAUCCUCAUCGGCAGACGACUCGCCCGAAAGGGCGGCUUUGCCAAGUGC [ssA10-Plk1 (sense strand without antisense)]”, the “activity on this sequence” value with Dicer (2'-F pyrimidines, not digested, variant of A10-Plk1 chimera) is recorded as “not active”.

Turning to “GGGAGGACGAUGCGGAUCAGCCAUGUUUACGUCACUCCUUGUCAAUCCUCAUCGGCAGACGACUCGCCCGAAAGUGAAGUCAACAUGCCUGC / GCAGGCAUGUUGACUUCACUU [A10-Bcl2 chimera]”, the binding result in data set [2] (2'-F pyrimidines in aptamer sense strand, binding/uptake in LNCaP, none in PC-3, label: FITC, variant of A10 aptamer) is reported as “binds”.

With “GGGAGGACGAUGCGGAUCAGCCAUGUUUACGUCACUCCUUGUCAAUCCUCAUCGGCAGACGACUCGCCCGAAAUUCUCCGAACGUGUCACGU / ACGUGACACGUUCGGAGAATT [A10-CON chimera]”, the binding result in data set [2] (2'-F pyrimidines in aptamer sense strand, dTdT 3' end on antisense, affinity comparable to A10, none on PC-3, competed by unlabeled A10 and anti-PSMA antibody, label: FAM-G, variant of A10 aptamer) is on record as “binds”. For the same sequence, in the data set with Dicer (setting [5]), the “activity on this sequence” value is recorded as “active”.

“GGGAGGACGAUGCGGAUCAGCCAUGUUUACGUCACUCCUUGUCAAUCCUCAUCGGCAGACGACUCGCCCGAAAUUCUCCGAACGUGUCACGU [ssA10-CON (sense strand without antisense)]”: the “activity on this sequence” value in the data set with Dicer (2'-F pyrimidines, not digested, variant of A10-CON chimera) was “not active”.

Regarding “TGGTGGTGGTGGTTGTGGTGGTGGTGG [AS1411 aptamer]”, in the data set with Nucleolin (Homo sapiens) [3], the binding result is “binds”.

“TGGTGGTGGTGGTTGTGGTGGTGGTGGAAGGGCGGCUUUGCCAAGUGC / AAGCACUUGGCAAAGCCGCCCUU [AS1411-Plk1 chimera]”: the binding result with Nucleolin (Homo sapiens) [4] is given as “binds”.
